The source of these data is paper PMC3284568.

Amino acid sequences for entries named in this document (tags omitted). Residues count along the entry.
UniProt Q9NPQ8: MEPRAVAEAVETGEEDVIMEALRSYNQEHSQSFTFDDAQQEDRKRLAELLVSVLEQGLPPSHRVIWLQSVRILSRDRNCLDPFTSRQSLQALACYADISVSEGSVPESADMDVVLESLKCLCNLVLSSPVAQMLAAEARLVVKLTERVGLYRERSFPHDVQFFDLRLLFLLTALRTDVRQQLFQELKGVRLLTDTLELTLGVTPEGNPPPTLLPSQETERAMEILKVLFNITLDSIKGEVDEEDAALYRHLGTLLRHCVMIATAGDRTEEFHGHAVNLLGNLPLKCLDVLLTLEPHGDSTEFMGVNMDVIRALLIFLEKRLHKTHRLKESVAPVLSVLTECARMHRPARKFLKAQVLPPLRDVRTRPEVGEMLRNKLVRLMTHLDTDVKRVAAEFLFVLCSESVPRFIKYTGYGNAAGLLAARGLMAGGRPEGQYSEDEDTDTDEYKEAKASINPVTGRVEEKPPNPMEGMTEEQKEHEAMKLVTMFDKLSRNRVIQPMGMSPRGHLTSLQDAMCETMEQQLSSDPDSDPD
UniProt P13595, residues 20-1115: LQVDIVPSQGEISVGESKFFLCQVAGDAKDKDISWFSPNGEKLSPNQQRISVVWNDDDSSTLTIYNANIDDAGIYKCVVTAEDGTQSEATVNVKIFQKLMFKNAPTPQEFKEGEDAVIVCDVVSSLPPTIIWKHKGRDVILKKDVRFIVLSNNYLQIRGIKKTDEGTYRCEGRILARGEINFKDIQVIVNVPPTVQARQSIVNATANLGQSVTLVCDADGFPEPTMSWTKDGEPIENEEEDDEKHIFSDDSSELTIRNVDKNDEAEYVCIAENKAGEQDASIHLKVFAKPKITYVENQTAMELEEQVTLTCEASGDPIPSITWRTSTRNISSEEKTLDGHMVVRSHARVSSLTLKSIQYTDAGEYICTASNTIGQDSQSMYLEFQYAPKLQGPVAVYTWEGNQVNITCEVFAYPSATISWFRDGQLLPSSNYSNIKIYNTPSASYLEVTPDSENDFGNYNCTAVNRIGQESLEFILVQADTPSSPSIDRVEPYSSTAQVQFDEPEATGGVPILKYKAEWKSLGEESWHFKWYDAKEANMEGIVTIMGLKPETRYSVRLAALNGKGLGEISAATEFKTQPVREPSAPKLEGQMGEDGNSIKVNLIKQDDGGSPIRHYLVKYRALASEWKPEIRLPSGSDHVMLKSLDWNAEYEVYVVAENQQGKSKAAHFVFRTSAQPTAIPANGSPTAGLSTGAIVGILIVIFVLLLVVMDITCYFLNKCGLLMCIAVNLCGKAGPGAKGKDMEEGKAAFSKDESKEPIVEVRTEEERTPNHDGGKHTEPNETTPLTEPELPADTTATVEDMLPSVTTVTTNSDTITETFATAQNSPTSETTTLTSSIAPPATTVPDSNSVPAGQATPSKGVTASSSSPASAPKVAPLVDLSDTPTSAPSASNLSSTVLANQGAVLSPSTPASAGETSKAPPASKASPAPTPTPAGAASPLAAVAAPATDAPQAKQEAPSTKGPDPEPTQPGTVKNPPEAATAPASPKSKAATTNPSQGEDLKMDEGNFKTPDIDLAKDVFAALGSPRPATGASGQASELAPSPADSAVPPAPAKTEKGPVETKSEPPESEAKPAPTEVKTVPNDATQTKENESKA

Results are given in words; binding and its absence hold for the method and conditions named. In cells and extracts the contact can be indirect. Some binding calls cover weakened binding; strength is not graded here.

This assay has as its target Ric8A-GST (human recombinant, full length) (human) (UniProt Q9NPQ8). The experiment in a line: pull-down; cleared female mouse brain extract incubated with recombinant Ric8A-GST (3 h, RT) or purified GST, then GSH beads (1 h, 4°C); NCAM detected by Western blot; only the target purified. (In general: In western blotting, separated proteins are transferred to a membrane and probed.)

Take “NCAM180 (endogenous, mouse brain extract) (from UniProt P13595-1 20-1115)”: the binding result is listed as “binds”.
